From publication PMC9562647 come the findings set out here.

Amino acid sequences for entries named in this document (tags omitted). Residues count along the entry.
UniProt P40763: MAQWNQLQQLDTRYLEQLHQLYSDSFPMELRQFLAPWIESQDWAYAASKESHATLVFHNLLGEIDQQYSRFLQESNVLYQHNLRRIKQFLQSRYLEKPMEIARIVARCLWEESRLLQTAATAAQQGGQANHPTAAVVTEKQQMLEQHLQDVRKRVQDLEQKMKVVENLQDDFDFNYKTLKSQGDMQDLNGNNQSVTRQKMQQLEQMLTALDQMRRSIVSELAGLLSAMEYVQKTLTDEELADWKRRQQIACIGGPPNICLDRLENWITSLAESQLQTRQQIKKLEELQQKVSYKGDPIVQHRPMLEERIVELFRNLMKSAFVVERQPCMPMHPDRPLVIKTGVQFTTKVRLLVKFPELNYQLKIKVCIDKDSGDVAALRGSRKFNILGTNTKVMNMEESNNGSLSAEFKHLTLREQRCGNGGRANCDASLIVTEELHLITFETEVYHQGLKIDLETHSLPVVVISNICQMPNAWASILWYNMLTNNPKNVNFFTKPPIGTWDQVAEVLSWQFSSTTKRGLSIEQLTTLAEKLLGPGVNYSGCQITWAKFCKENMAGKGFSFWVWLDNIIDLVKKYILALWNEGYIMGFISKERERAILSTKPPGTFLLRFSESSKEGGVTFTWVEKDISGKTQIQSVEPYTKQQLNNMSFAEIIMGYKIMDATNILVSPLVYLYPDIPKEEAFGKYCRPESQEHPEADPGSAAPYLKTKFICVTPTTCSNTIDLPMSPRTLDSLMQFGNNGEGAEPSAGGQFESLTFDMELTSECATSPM
UniProt P16070, residues 21-742: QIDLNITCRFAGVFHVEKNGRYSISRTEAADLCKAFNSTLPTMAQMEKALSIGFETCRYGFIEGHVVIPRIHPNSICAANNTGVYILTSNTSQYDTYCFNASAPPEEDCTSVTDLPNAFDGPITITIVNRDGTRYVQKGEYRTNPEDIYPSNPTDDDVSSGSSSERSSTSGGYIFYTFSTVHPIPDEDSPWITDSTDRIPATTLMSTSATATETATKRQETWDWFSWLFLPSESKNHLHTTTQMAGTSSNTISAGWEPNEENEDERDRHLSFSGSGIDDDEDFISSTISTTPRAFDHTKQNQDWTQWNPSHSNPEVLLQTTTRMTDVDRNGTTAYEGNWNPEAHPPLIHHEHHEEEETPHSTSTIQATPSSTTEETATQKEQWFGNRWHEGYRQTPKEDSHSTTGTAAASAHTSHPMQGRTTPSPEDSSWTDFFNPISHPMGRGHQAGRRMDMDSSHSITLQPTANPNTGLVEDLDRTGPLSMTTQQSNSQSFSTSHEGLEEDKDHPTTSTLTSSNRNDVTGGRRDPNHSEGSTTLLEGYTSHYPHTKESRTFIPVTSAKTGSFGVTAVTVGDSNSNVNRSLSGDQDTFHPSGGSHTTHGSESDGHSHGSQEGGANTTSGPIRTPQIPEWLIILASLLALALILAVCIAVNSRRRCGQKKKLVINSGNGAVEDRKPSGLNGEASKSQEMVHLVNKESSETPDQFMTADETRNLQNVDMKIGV

No constants are given. Whether binding was seen depends on the method and setting. Binding seen in cells or lysates may run through a third protein. Some results given as binding are weak or reduced against the parent protein; the word gives no strength.

Assay [1] deals with STAT3 (human (endogenous in A549)) (UniProt P40763). Briefly: co-IP; whole lysates of A549 cells, pre-cleared, incubated with anti-STAT3 or anti-CD44 antibody overnight at 4 °C; protein G magnetic beads; precipitate detected for CD44 or STAT3 by western blotting; isotype IgG also applied. In general terms: In western blotting, separated proteins are transferred to a membrane and probed.

The target of assay [2] is CD44 (human (endogenous in A549)) (UniProt P16070). Described as above.

As to “CD44 (from UniProt P16070 21-742) (receptor)”, the binding entry in assay [1] is on record as “binds”.

For STAT3 (from UniProt P40763 1-770), the binding entry in assay [2] is listed as “binds”.
